Source: paper PMC5770965, “pKID Binds to KIX via an Unstructured Transition State with Nonnative Interactions” (Biophysical Journal, 2017)
These are yes or no findings as the source states them, for the method shown. Some results given as binding are weak or reduced against the parent protein; the word gives no strength. Non-standard residues stand in square brackets, D forms with d. No end group written: not given here. *: point of attachment. FITC = O=C1OC2(c3ccc(O)cc3Oc3cc(O)ccc32)c2ccc(NC(=S)*)cc21; pS = N[C@@H](COP(=O)(O)O)C(=O)O

Chains of the proteins cited; added tags and fusions are not shown. Residues count along the entry.
UniProt P45481, residues 586-666: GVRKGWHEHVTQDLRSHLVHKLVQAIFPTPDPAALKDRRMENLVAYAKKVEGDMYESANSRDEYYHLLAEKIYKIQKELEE

How the values were obtained:
KIX domain of CBP [1] = target: KIX domain of CBP (UniProt P45481); test: stopped-flow fluorescence kinetics; association under pseudo-first-order conditions at different KIX concentrations (fast and slow phase); dissociation of FITC-pKID from KIX at different concentrations of unlabeled competitor; conditions as in the accompanying article (ref. 42); both …
KIX domain of CBP [2] = target: KIX domain of CBP (UniProt P45481); test: fluorescence polarisation; equilibrium fluorescence anisotropy of N-terminally FITC-labelled pKID peptides with KIX; buffer and conditions as in the accompanying article (ref. 42); both purified
KIX domain of CBP [3] = target: KIX domain of CBP (UniProt P45481); test: as above; remark: listed apart in the source

binding (KIX domain of CBP [1])	binding (KIX domain of CBP [2])	binding (KIX domain of CBP [3])	Molecule
binds	binds	–	FITC-pKID wild-type peptide (CREB residues 116-146, phosphorylated) (from UniProt P15337-1 116-146)
binds	binds	–	{FITC}-DSVTDAQKRREILSRRP[pS]YRKILNDLSSDAP (peptide, UniProt P15337-1 116-146, looked up, source: synthetic peptide, bought: Biomatik) [FITC-pKID S121A]
binds	–	–	{FITC}-DSVADSQKRREILSRRP[pS]YRKILNDLSSDAP (peptide, UniProt P15337-1 116-146, looked up, source: synthetic peptide, bought: Biomatik) [FITC-pKID T119A]
binds	–	–	{FITC}-DSVGDSQKRREILSRRP[pS]YRKILNDLSSDAP (peptide, UniProt P15337-1 116-146, looked up, the peptide has Gly in place of the natural Thr119; also called A119G; source: synthetic peptide, bought: Biomatik) [FITC-pKID T119G]
binds	binds	–	{FITC}-DSVTDSQKRREILSRRP[pS]YRKILNDLASDAP (peptide, UniProt P15337-1 116-146, looked up, source: synthetic peptide, bought: Biomatik) [FITC-pKID S142A]
binds	–	binds	DSVTDSQKRREILSRRPSYRKILNALSSDAP (peptide, UniProt P15337-1 116-146, FITC on the N-terminus; phosphoserine at 133) [FITC-pKID D140A]
–	–	binds	DSVTDSQKRREILSRRPSYRGILNDLSSDAP (peptide, UniProt P15337-1 116-146, FITC on the N-terminus; phosphoserine at 133) [FITC-pKID K136G (Gly mutant at 136)]
–	–	binds	DSVTDSQKRREILSRRPSYGKILNDLSSDAP (peptide, UniProt P15337-1 116-146, FITC on the N-terminus; phosphoserine at 133) [FITC-pKID R135G (Gly mutant at 135)]
–	–	binds	DSVTDSQKRREILSRRPSYAKILNDLSSDAP (peptide, UniProt P15337-1 116-146, FITC on the N-terminus; phosphoserine at 133) [FITC-pKID R135A (Ala mutant at 135)]
binds	–	–	DSVTDSQKRREIASRRPSYRKILNDLSSDAP (peptide, UniProt P15337-1 116-146, FITC on the N-terminus; phosphoserine at 133) [FITC-pKID L128A]
–	–	binds	DSVTDSQKRREILSRRGSYRKILNDLSSDAP (peptide, UniProt P15337-1 116-146, FITC on the N-terminus; phosphoserine at 133) [FITC-pKID P132G (Gly mutant at 132)]
binds	–	binds	DSVTDSQKRRAILSRRPSYRKILNDLSSDAP (peptide, UniProt P15337-1 116-146, FITC on the N-terminus; phosphoserine at 133) [FITC-pKID E126A]
–	–	binds	DSVTDSQKRREILSRRASYRKILNDLSSDAP (peptide, UniProt P15337-1 116-146, FITC on the N-terminus; phosphoserine at 133) [FITC-pKID P132A (Ala mutant at 132)]
–	–	binds	DSVTDSQKRREILSRRPSYRAILNDLSSDAP (peptide, UniProt P15337-1 116-146, FITC on the N-terminus; phosphoserine at 133) [FITC-pKID K136A (Ala mutant at 136)]
binds	–	binds	DSVTDSQKRREILSRAPSYRKILNDLSSDAP (peptide, UniProt P15337-1 116-146, FITC on the N-terminus; phosphoserine at 133) [FITC-pKID R131A]
binds	–	binds	DSVTDSQKAREILSRRPSYRKILNDLSSDAP (peptide, UniProt P15337-1 116-146, FITC on the N-terminus; phosphoserine at 133) [FITC-pKID R124A]
binds	–	binds	DSVTDSQKRAEILSRRPSYRKILNDLSSDAP (peptide, UniProt P15337-1 116-146, FITC on the N-terminus; phosphoserine at 133) [FITC-pKID R125A]
binds	–	–	DSVTDSQKRREILSRRPSYRKALNDLSSDAP (peptide, UniProt P15337-1 116-146, FITC on the N-terminus; phosphoserine at 133) [FITC-pKID I137A]
binds	–	–	DSVTDSQKRREILSRRPSYRKIANDLSSDAP (peptide, UniProt P15337-1 116-146, FITC on the N-terminus; phosphoserine at 133) [FITC-pKID L138A]
